# Measured values: PMC8384837
# Substitutions are numbered along the chain they refer to. The list shows a part of the results. For some of these results: At the low end of the ranking the order means little.
# Tests used:
# Details in all cases: yeast three-hybrid, YBZ-1, SC-Leu-His + 0.5 mM 3-AT, 4 days
# [1] = target: T1, PUM1 PUF domain R1-NWG S863N + R864W + Q867G (UniProt Q14671)
# T1 sequence: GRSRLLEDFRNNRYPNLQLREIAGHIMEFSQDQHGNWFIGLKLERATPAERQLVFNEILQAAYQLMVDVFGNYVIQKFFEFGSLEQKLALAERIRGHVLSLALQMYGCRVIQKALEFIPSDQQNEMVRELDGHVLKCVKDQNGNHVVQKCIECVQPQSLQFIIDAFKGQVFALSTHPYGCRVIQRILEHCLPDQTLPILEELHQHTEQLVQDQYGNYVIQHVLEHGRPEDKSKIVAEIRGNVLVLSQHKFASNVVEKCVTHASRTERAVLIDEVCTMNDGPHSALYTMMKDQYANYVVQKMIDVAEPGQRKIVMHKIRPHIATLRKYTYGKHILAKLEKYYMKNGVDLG
# [2] = target: T2, PUM1 PUF domain R1-NWS S863N + R864W + Q867S (Homo sapiens) (UniProt Q14671)
# T2 sequence: T1 sequence with G40S
# [3] = target: T3, PUM1 PUF domain R1-QGR S863Q + R864G + Q867R (Homo sapiens) (UniProt Q14671)
# T3 sequence: T1 sequence with N36Q, W37G, G40R
# [4] = target: T4, PUM1 PUF domain R1-SGR R864G + Q867R (Homo sapiens) (UniProt Q14671)
# T4 sequence: T1 sequence with N36S, W37G, G40R
# [5] = target: T5, PUM1 PUF domain R1-SVR R864V + Q867R (Homo sapiens) (UniProt Q14671)
# T5 sequence: T1 sequence with N36S, W37V, G40R
# [6] = target: T6, PUM1 PUF domain R1-GWE S863G + R864W + Q867E (Homo sapiens) (UniProt Q14671)
# T6 sequence: T1 sequence with N36G, G40E
# [7] = target: T7, PUM1 PUF domain R1-SRD Q867D (Homo sapiens) (UniProt Q14671)
# T7 sequence: T1 sequence with N36S, W37R, G40D
# [8] = target: T8, PUM1 PUF domain R2-AVA N899A + Y900V + Q903A (UniProt Q14671)
# T8 sequence: T1 sequence with N36S, W37R, G40Q, N72A, Y73V, Q76A
# [9] = target: T9, PUM1 PUF domain R2-EPW N899E + Y900P + Q903W (UniProt Q14671)
# T9 sequence: T1 sequence with N36S, W37R, G40Q, N72E, Y73P, Q76W
# [10] = target: T10, PUM1 PUF domain R2-EWD N899E + Y900W + Q903D (Homo sapiens) (UniProt Q14671)
# T10 sequence: T1 sequence with N36S, W37R, G40Q, N72E, Y73W, Q76D
# [11] = target: T11, PUM1 PUF domain R2-GFD N899G + Y900F + Q903D (UniProt Q14671)
# T11 sequence: T1 sequence with N36S, W37R, G40Q, N72G, Y73F, Q76D
# [12] = target: T12, PUM1 PUF domain R2-KLV N899K + Y900L + Q903V (UniProt Q14671)
# T12 sequence: T1 sequence with N36S, W37R, G40Q, N72K, Y73L, Q76V
# [13] = target: T13, PUM1 PUF domain R2-KVA N899K + Y900V + Q903A (UniProt Q14671)
# T13 sequence: T1 sequence with N36S, W37R, G40Q, N72K, Y73V, Q76A
# [14] = target: T14, PUM1 PUF domain R2-MVW N899M + Y900V + Q903W (UniProt Q14671)
# T14 sequence: T1 sequence with N36S, W37R, G40Q, N72M, Y73V, Q76W
# [15] = target: T15, PUM1 PUF domain R2-PVM N899P + Y900V + Q903M (UniProt Q14671)
# T15 sequence: T1 sequence with N36S, W37R, G40Q, N72P, Y73V, Q76M
# [16] = target: T16, PUM1 PUF domain R2-PWL N899P + Y900W + Q903L (UniProt Q14671)
# T16 sequence: T1 sequence with N36S, W37R, G40Q, N72P, Y73W, Q76L
# [17] = target: T17, PUM1 PUF domain R2-QWW N899Q + Y900W + Q903W (UniProt Q14671)
# T17 sequence: T1 sequence with N36S, W37R, G40Q, N72Q, Y73W, Q76W
# [18] = target: T18, PUM1 PUF domain R2-RKC N899R + Y900K + Q903C (UniProt Q14671)
# T18 sequence: T1 sequence with N36S, W37R, G40Q, N72R, Y73K, Q76C
# [19] = target: T19, PUM1 PUF domain R2-RKS N899R + Y900K + Q903S (UniProt Q14671)
# T19 sequence: T1 sequence with N36S, W37R, G40Q, N72R, Y73K, Q76S
# [20] = target: T20, PUM1 PUF domain R2-RRA N899R + Y900R + Q903A (Homo sapiens) (UniProt Q14671)
# T20 sequence: T1 sequence with N36S, W37R, G40Q, N72R, Y73R, Q76A
sequence,measurement,setting,value
GGCUAGAACUAGUGGAUCCCCCGGCGCCCGGCGGCUCGAGCCCGGGUAAGUGUAAAUGGUCUGCAUGCCGCCGGGCGCCAUGCCUGCAGGUCGACUCUAGAAAACAUG,binding signal (log2 enrichment (interaction score)),[1],-9.05
same,binding signal (log2 enrichment (interaction score)),[2],-0.33
same,binding signal (log2 enrichment (interaction score)),[3],-0.19
same,binding signal (log2 enrichment (interaction score)),[4],-0.9
same,binding signal (log2 enrichment (interaction score)),[5],-1.08
GGCUAGAACUAGUGGAUCCCCCGGCGCCCGGCGGCUCGAGCCCGGGUAAGUGUAAAUCGUCUGCAUGCCGCCGGGCGCCAUGCCUGCAGGUCGACUCUAGAAAACAUG,binding signal (log2 enrichment (interaction score)),[6],-1.59
same,binding signal (log2 enrichment (interaction score)),[1],< -7.92
same,binding signal (log2 enrichment (interaction score)),[2],-1.78
same,binding signal (log2 enrichment (interaction score)),[7],-1.26
GGCUAGAACUAGUGGAUCCCCCGGCGCCCGGCGGCUCGAGCCCGGGUAAGUGUAAAUUGUCUGCAUGCCGCCGGGCGCCAUGCCUGCAGGUCGACUCUAGAAAACAUG,binding signal (log2 enrichment (interaction score)),[6],-0.52
same,binding signal (log2 enrichment (interaction score)),[3],0.03
same,binding signal (log2 enrichment (interaction score)),[4],-0.66
same,binding signal (log2 enrichment (interaction score)),[7],-0.71
same,binding signal (log2 enrichment (interaction score)),[5],-1.12
GGCUAGAACUAGUGGAUCCCCCGGCGCCCGGCGGCUCGAGCCCGGGUAAGUGUAAAUAGUCUGCAUGCCGCCGGGCGCCAUGCCUGCAGGUCGACUCUAGAAAACAUG,binding signal (log2 enrichment (interaction score)),[8],< -8.36
same,binding signal (log2 enrichment (interaction score)),[9],< -7.31
same,binding signal (log2 enrichment (interaction score)),[10],0.12
same,binding signal (log2 enrichment (interaction score)),[11],< -6.86
same,binding signal (log2 enrichment (interaction score)),[12],-5
same,binding signal (log2 enrichment (interaction score)),[13],< -8.65
same,binding signal (log2 enrichment (interaction score)),[14],< -8.05
same,binding signal (log2 enrichment (interaction score)),[15],< -7.68
same,binding signal (log2 enrichment (interaction score)),[16],-7.51
same,binding signal (log2 enrichment (interaction score)),[17],< -6.12
same,binding signal (log2 enrichment (interaction score)),[18],-6.16
same,binding signal (log2 enrichment (interaction score)),[19],< -9
same,binding signal (log2 enrichment (interaction score)),[20],-2.87
GGCUAGAACUAGUGGAUCCCCCGGCGCCCGGCGGCUCGAGCCCGGGUAAGUGUAAAAAGUCUGCAUGCCGCCGGGCGCCAUGCCUGCAGGUCGACUCUAGAAAACAUG,binding signal (log2 enrichment (interaction score)),[8],< -9.39
same,binding signal (log2 enrichment (interaction score)),[9],< -6.03
same,binding signal (log2 enrichment (interaction score)),[10],1.85
same,binding signal (log2 enrichment (interaction score)),[11],< -6.94
same,binding signal (log2 enrichment (interaction score)),[12],< -9.16
same,binding signal (log2 enrichment (interaction score)),[13],< -8.45
same,binding signal (log2 enrichment (interaction score)),[14],< -8.65
same,binding signal (log2 enrichment (interaction score)),[15],< -8.09
same,binding signal (log2 enrichment (interaction score)),[16],< -9.01
same,binding signal (log2 enrichment (interaction score)),[17],< -7.36
same,binding signal (log2 enrichment (interaction score)),[18],< -8
same,binding signal (log2 enrichment (interaction score)),[19],< -8.6
same,binding signal (log2 enrichment (interaction score)),[20],-0.85

# Taken from above (2 entries):
sequence,measurement,setting,value
GGCUAGAACUAGUGGAUCCCCCGGCGCCCGGCGGCUCGAGCCCGGGUAAGUGUAAAUAGUCUGCAUGCCGCCGGGCGCCAUGCCUGCAGGUCGACUCUAGAAAACAUG,binding signal (log2 enrichment (interaction score)),[9],< -7.31
same,binding signal (log2 enrichment (interaction score)),[10],0.12
